Some of the results follow.

The chains behind the UniProt entries cited, without tags or fusion partners.
UniProt Q0JBA9, entry or part of it: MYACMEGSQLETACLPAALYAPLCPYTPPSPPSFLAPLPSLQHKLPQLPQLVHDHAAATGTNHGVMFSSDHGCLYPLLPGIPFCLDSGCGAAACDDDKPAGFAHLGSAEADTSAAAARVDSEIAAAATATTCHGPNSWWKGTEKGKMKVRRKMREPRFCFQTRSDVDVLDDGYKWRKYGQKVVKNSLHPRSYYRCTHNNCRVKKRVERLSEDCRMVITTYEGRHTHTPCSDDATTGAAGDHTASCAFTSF

For the experiment, the target named is OsWRKY34 (Oryza sativa, UniProt Q0JBA9 1-250). The experiment in a line: protein-binding microarray (RPBM); PBS, 2% BSA, 51.3 ng/ul salmon testes DNA, 50 uM zinc acetate, 200 nM TF, 25 C, 1 h; high values mean tight binding. To be noted: protein: recombinant; tags: N-terminal polyhistidine and DsRed monomer fusion (pET32a); label: CyDye5-dUTP incorporated in the synthesized complementary strand; 3' TTTTT single-stranded linker to array surface; dsDNA, one strand shown. In short, it runs like this: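 Using Ni–NTA, transcription factors fused N-terminally to polyhistidine and DsRed were purified after expression in E. coli BL21-CodonPlus. These were incubated at 200 nM with a blocked, double-stranded custom Agilent array for 1 h at 25 °C in a buffer containing 50 µM zinc acetate, and the array was washed. The binding signal is per-feature fluorescence intensity (arbitrary units) on an Axon 4000B scanner.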
Consider “TTCTACATTTATTCAGTTCTATATCCGTAGGCCCTAATTGCGGAGTCACCTAGTGCAG”, for which the binding signal was 10000 fluorescence intensity (a.u.).
Turning to “TCCTTTGCTACACTATATTCAAGCCATTGGTACTTATGAACGGAGTCACCTAGTGCAG”, the binding signal was 8100 fluorescence intensity (a.u.).
The figure for “GATCACGGCGCGCCGCATCCTTCTCTCGTTGACCTAAAAACGGAGTCACCTAGTGCAG” is 8400 fluorescence intensity (a.u.).
The result for “ATTGTTACTGTTCTCGACTTCGCCGTCTCGCAAAATCCATCGGAGTCACCTAGTGCAG” reads 14700 fluorescence intensity (a.u.); that for “TTTTCATCTGAGCTTATGTTCCAACTTTTATTTTTAATCACGGAGTCACCTAGTGCAG”, 8780 fluorescence intensity (a.u.); that for “GACTCTACGCTTCGTTTACTTTTTTTTTTTTTTTTGAAAACGGAGTCACCTAGTGCAG”, 10200 fluorescence intensity (a.u.).
As to “AATTCTCTATCGCTATATTCTGCAACACACACAGTTTGCTCGGAGTCACCTAGTGCAG”, the binding signal is 8800 fluorescence intensity (a.u.).
In the case of “AACAGTTTAGTGAGGTGGTGGGGAATCGACCTCAAATCGGCGGAGTCACCTAGTGCAG”, the binding signal is 8210 fluorescence intensity (a.u.).
“TGTGGTGGGGATGGGACTGTTGCATGGGTTCTTGATGCTACGGAGTCACCTAGTGCAG”: the binding signal is 10500 fluorescence intensity (a.u.).
Take “GAGTATATCATTTCTCAATTTATTATTTATAGGAGTGTAGCGGAGTCACCTAGTGCAG”: the binding signal was 15700 fluorescence intensity (a.u.).
Regarding “TTCCTAACTCATTCATATGCTGGTCAGCTTTTGTTCATGACGGAGTCACCTAGTGCAG”, the binding signal is 10300 fluorescence intensity (a.u.).
On to “GTTCGGCTGCTTTTTTTTTCTCCGGCTACAGCTGTGGCCACGGAGTCACCTAGTGCAG”, for which the binding signal is 8260 fluorescence intensity (a.u.).
The result for “TTTCTTATGTGCCACTATTTGCAATTTTTTTTCCACGTGACGGAGTCACCTAGTGCAG” reads 9520 fluorescence intensity (a.u.).
Regarding “TATTCGATTTTGGGTGGTGGTTGTTAAGTTGGCATTTGCACGGAGTCACCTAGTGCAG”, the binding signal is 18300 fluorescence intensity (a.u.).
Regarding “GGATCCACATTTGTTCTGGATTTCGTTTTTGTGTGTTTTTCGGAGTCACCTAGTGCAG”, the binding signal is 11300 fluorescence intensity (a.u.).
For the sequence “TGTGAAACCAATCACTATTATTTCATTAGCACGTTTTTCACGGAGTCACCTAGTGCAG”, the binding signal was 8300 fluorescence intensity (a.u.).
The figure for “TCTTGGACGACAGCGTGCCCCTGCGCTCTTTTCGCCTTCGCGGAGTCACCTAGTGCAG” is 8340 fluorescence intensity (a.u.); for “GAGTTGGGGTGGTTGATGGCGTGCTTATCTTCCACTTCCACGGAGTCACCTAGTGCAG” it is 8660 fluorescence intensity (a.u.).
For “GGGGCGGTGGCGGCGGTGGATTGGGCGGTAACGCGATGGCCGGAGTCACCTAGTGCAG”, the binding signal was 10900 fluorescence intensity (a.u.).
Regarding “TCCCCGCTAGTCGCCCGCCCGTCTTCCCGCCGCCCGTCGGCGGAGTCACCTAGTGCAG”, the binding signal was 9950 fluorescence intensity (a.u.).
Take “CCTCCACTGTACCGTATATATAGTCAATTACCACTTCGTCCGGAGTCACCTAGTGCAG”: the binding signal was 10300 fluorescence intensity (a.u.).
Turning to “TTAAGTCCATTCACGCTTATATAAAGCCAAGTTATAGTTTCGGAGTCACCTAGTGCAG”, the binding signal was 9240 fluorescence intensity (a.u.).
On to “TTCTAGTATATACCTGTCGAGAAGCTATTATATTCTATAACGGAGTCACCTAGTGCAG”, for which the binding signal is 10100 fluorescence intensity (a.u.).
With “AGTGGTTTTGCGTTGGTTGTAAGGGTCGGGTTTGGGCAAACGGAGTCACCTAGTGCAG”, the binding signal was 13500 fluorescence intensity (a.u.).
The result for “CACCCTGACGGTCCAGCACGATCCACCCCATCTATCGAACCGGAGTCACCTAGTGCAG” reads 10800 fluorescence intensity (a.u.); that for “GAGGAAGGGTACACTATTTTGCATTCTTGAAGTTCACTGACGGAGTCACCTAGTGCAG”, 8420 fluorescence intensity (a.u.); that for “CTTTCTTGCTATTTTATGGATTTTATTGAAATTGGTTCTTCGGAGTCACCTAGTGCAG”, 8160 fluorescence intensity (a.u.).
Take “TCACCTTTTTACCACTTCAAATATTTTATTCTCACACATACGGAGTCACCTAGTGCAG”: the binding signal was 8360 fluorescence intensity (a.u.).
On to “CTCCTCTTCTCTCCACCACACATGCTTCAAGTGGCTAGGACGGAGTCACCTAGTGCAG”, for which the binding signal is 9990 fluorescence intensity (a.u.).
Consider “CCTGCCACCTCAAACACCTGAAGCTGTCTGGTTCTTTACTCGGAGTCACCTAGTGCAG”, for which the binding signal is 8450 fluorescence intensity (a.u.).
On to “AGTGAATCAGTGGTACAAAATTTCCAACCATTTTGTTGACCGGAGTCACCTAGTGCAG”, for which the binding signal was 9410 fluorescence intensity (a.u.).
Turning to “CCCAGGCGTCACCAGTCCCACGTGGCGCCACCCCATTGGCCGGAGTCACCTAGTGCAG”, the binding signal was 9510 fluorescence intensity (a.u.).
As for “ATTGGTTTTATCTACATGTTTGCTATTCAGGTTTATTCTGCGGAGTCACCTAGTGCAG”, the binding signal was 8400 fluorescence intensity (a.u.).
With “CGGGGTTATGTGTCACGTGTCAAAATGTGTGGTTTTGTACCGGAGTCACCTAGTGCAG”, the binding signal was 9200 fluorescence intensity (a.u.).
Turning to “AGGAGGTGGTATTATTTTTTTTTTGGTAGAGAGGGGAGGGCGGAGTCACCTAGTGCAG”, the binding signal is 16500 fluorescence intensity (a.u.).
Turning to “AACCGTTCGATCCCGTCTACCGCGTGCACCACATCGCTTCCGGAGTCACCTAGTGCAG”, the binding signal was 9260 fluorescence intensity (a.u.).
For “GGTTTGGCTTTGCTTCTTCCTCGCGCGGCGCCTCCCATCCCGGAGTCACCTAGTGCAG”, the binding signal is 9260 fluorescence intensity (a.u.).
Regarding “GTTAATGACAGCATACCCATTCTTATTCGTTGTTATAATTCGGAGTCACCTAGTGCAG”, the binding signal is 8700 fluorescence intensity (a.u.).
Take “AAAAACCTTTTAAATTTGTTTTTGATGTGTCTCTATCCCTCGGAGTCACCTAGTGCAG”: the binding signal is 9080 fluorescence intensity (a.u.).
In the case of “GCATTATTCCGACTTCGCCGTCGTTCTCCTCCCGTCGCGGCGGAGTCACCTAGTGCAG”, the binding signal was 8640 fluorescence intensity (a.u.).
The figure for “TGTGTGGTATGGGGAGAAATCAATAAAATGTATGAGAGAGCGGAGTCACCTAGTGCAG” is 8970 fluorescence intensity (a.u.).
The result for “GACTCCACGCGTCTGGATCCGGCCCACCGCCGCTGGATCTCGGAGTCACCTAGTGCAG” reads 8520 fluorescence intensity (a.u.).

Source of the values: paper PMC7819943, “Rice protein-binding microarrays: a tool to detect cis-acting elements near promoter regions in rice”.
